# Results reported in patent publication US9504252B2, “Microbiocides and uses thereof” (Buckman Laboratories International, Inc., priority 2014, dated 2016).
# Experiments:
# [1] = post inversion viscosity of polyacrylamide fluid with biocide (Brookfield viscometer); settings: for polymer viscosity relative to control: 250 ppm biocide
# [2] = effect of biocide on oxygen scavenger (ORP); type: physicochemical; settings: 500 ppm biocide, after 10 minutes
SMILES,"polymer viscosity relative to control ([1]; 0.1% PAM, FIG. 1)",ORP lower than the control [2],viscosity lower than with GA ([1]; 0.1% PAM),"polymer viscosity relative to control and GA sample ([1]; higher biocide concentrations (up to 1,000 ppm), FIG. 1)"
"O=CCCCC=O [GA, glutaraldehyde, reference compound]",slightly lower,,,
"CNC(=S)[S-].[Na+] [SNMDTC, sodium-N-methyldithiocarbamate]",slightly higher,approximately 2 ×,approximately 2.75%,slightly lower
